Assay [1] addresses Fsa2 (Fusarium sp. FN080326). The experiment in a line: SEC. Background: SEC sorts molecules by how far they enter the pores of the column.
The target in assay [2] is Phm7 (Pyrenochaetopsis sp. RK10-F058). As to the kind of experiment: SEC.

Chains of the proteins cited; added tags and fusions are not shown.
UniProt A0A0E4AYE7, whole entry: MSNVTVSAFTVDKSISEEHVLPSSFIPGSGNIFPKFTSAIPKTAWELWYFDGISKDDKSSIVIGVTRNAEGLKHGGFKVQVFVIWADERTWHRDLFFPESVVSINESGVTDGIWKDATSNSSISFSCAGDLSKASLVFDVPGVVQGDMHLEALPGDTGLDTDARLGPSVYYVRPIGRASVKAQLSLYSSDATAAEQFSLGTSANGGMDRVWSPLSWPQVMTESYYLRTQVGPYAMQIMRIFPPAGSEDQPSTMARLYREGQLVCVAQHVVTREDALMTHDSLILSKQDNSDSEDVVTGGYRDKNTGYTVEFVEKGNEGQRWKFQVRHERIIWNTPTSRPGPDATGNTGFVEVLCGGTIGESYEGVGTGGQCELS

For two molecules, binding results are on record in doi:10.1101/2021.02.01.429105.

Results are given in words; binding and its absence hold for the method and conditions named.

As for “Fsa2 (from UniProt A0A0E4AYE7 1-374) (enzyme)”, the binding entry in assay [1] is “no binding”.

B1: Phm7 (enzyme, UniProt A0A2Z5XAU0 1-386)
chain: MSEPTSSSSLDITSNCIIETPLQPSDFLPKSANLFPKFPERISVDSWELWEFDTFDTNGSVAFGCSLYRDARGVEQGGFHAEVNALWPDGTHWGETLYFAVSEVVENSDGTTGGKWLSKDGGSITFHIASDYTAAALDFNVPGKVSGTMELRNHANVSPTSNLPASDAEAQLCPGVYYTFPMGPVATSVTATFSSVGANGESRELFISSGYGGMVRGWSARPWPTFMNDAYYVVAQVGPYMLQILRTLGSVFVQHKPFAVARLYLDGSLVSAANTVVGDELTAHADDVKGDAVRLTKVQPDEKSQGLSGKFRDGNVGYVLEFAKKDSEHGWTFQISHKRAVWSEPTSAPGPDGTGKSGWIEAISGGAKGENYEGHGFGGQLQIPVP
On to B1, for which the binding entry in assay [2] is reported as “no binding”.
